The campaign covered roughly 310,000 compounds. About 17,000 (5.5%) were called active. This list was built around the results that the source calls inconclusive (neither active nor inactive); the mix of calls is not that of the screen. The call rests on the fitted dose curve; in most records, active means well fitted inhibition curve with a large enough effect; inconclusive means small, poorly fitted or top-dose-only effect, or effect the other way; inactive means no such curve, though single readings can be large or run the other way. Where the call is inconclusive, the potency comes from a doubtful curve fit.
The molecules below were run against Nuclear receptor ROR-gamma (Mus musculus) (UniProt P51450) (assay: qHTS for inhibitors of ROR gamma transcriptional activity). Conditions: Drosophila S2 Gal4-RORgamma UAS-luciferase reporter, 20 h; activity change, negative = inhibition: at 53.6 µM (top of the series).
How it was run: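 Schneider cells (Drosophila), stable Gal4 DBD–ROR gamma + UAS-luc; 1 hr cmpd preincubation; Cu2+ induction 700 uM final; 20 hr ambient; luminescence.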
Further: nearly all actives have a fitted effect of over 60% in size.
On the % scale 0 is the no-effect control and ±100 the full control effect; potency means the concentration at half of the fitted maximal effect.

Amino acid sequences for entries named in this document (tags omitted). A change or cut given only in a name is not applied to a line headed by its entry.
UniProt P51450: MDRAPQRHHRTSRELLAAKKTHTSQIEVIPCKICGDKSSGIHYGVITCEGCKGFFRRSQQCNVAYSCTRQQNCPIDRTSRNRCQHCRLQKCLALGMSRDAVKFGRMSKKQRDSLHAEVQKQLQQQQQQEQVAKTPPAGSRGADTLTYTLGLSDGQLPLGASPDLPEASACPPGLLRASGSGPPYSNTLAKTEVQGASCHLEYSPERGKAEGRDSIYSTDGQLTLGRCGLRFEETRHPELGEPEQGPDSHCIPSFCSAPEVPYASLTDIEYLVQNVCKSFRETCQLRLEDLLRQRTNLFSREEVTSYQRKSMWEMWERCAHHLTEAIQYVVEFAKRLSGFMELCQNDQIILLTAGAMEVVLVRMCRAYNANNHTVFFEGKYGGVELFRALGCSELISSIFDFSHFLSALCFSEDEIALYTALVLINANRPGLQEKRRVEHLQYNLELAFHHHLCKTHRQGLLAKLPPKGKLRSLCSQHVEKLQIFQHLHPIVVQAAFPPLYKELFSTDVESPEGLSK

SMILES | Potency | activity change, negative = inhibition
O=S(=O)(Cc1ccccc1)NCC1CCCO1 (stereo not drawn) | inconclusive: 15.8 µM [inhibitor, single point] | 
O=C1C(Nc2ccc(O)cc2)=C/C(=N/S(=O)(=O)c2cccs2)c2ccccc21 | active: 11.2 µM | 
CNc1cc([N+](=O)[O-])ccc1N/C=C/C(=O)c1ccc2c(c1)OCO2 | inconclusive: 31.6 µM [inhibitor, single point] | 
C/C(CC(=O)Nc1ccc(N(C)C)cc1)=N\NC(=O)c1ccc(C(C)(C)C)cc1 | inconclusive: 35.5 µM [inhibitor, single point] | 
CCn1c(N2CCN(S(=O)(=O)c3ccc(F)cc3)CC2)nc2ccccc21 |  | inactive: 22.7%
CCOC(=O)C/C(=N\Nc1ncnc2ccccc12)c1ccccc1 | active: 6.31 µM | 
COc1ccc(NC(=S)NCc2ccco2)cc1 | active: 11.2 µM | 
CCN(CC)CCNC(=O)CSc1c2c(nc3cc(Cl)ccc13)CCCC2 |  | inactive: -16.5%
CC(C)(C)c1nnc(NC(=S)Nc2ccccc2)s1 | active: 0.282 µM | 
C/C(=N\NC(=O)c1ccc(CN(C)S(=O)(=O)c2ccc(C)cc2)cc1)c1ccc(OC(F)F)cc1 | inconclusive: 3.16 µM [activator, full curve, poor fit] | 
COc1ccc(C(=O)Nc2nc3nccc(-c4ccccc4)n3n2)cc1 |  | inactive: -10.4%
COc1ccc2nc(Nc3nc4cc5c(cc4s3)OCO5)sc2c1 | active: 4.47 µM | 
CC(=O)c1ccc(C(=O)NC2CCCN(Cc3ccc(Cl)cc3)C2)s1 (stereo not drawn) | inconclusive: 31.6 µM [activator, single point] | 
COc1cc2[nH]c(=S)nc(NCc3cccs3)c2cc1OC | active: 6.31 µM | 
CC(NC(=S)NCc1ccc(F)cc1)C12CC3CC(CC(C3)C1)C2 (stereo not drawn) | active: 1.78 µM | 
COc1ccccc1N(Cc1cc2ccc(C)cc2[nH]c1=O)C(C)=O |  | inactive: 9.12%
O=C(OCC(=O)N1CCCC1)c1cccs1 | inconclusive: 4.47 µM [activator, single point] | 
CNc1ccccc1C(=O)OC(C)C(=O)Nc1ccc(Cl)cn1 (stereo not drawn) |  | inactive: 20.7%
COc1ccc(OC)c(NC(=O)C2CCC(CNc3c(N4CCC(C)CC4)c(=O)c3=O)CC2)c1 (stereo not drawn) | active: 0.794 µM | 
COc1ccccc1NS(=O)(=O)c1ccc(Cl)c(NC(=S)NC(=O)C2CCCC2)c1 | inconclusive: 7.94 µM [inhibitor, single point] | 
Cc1ccc(-c2nnc(SCC(=O)N/N=C/c3ccc(C)s3)n2-c2ccc(C)cc2)cc1 | active: 17.8 µM | 
COc1ccc(-n2ccn(CC(=O)Nc3ccc(OC)cc3OC)c(=O)c2=O)cc1 |  | inactive: -0.535%
CC(C)[C@H]1C(=O)Nc2ccccc2N1C(=O)N[C@@H](Cc1ccccc1)C(=O)N[C@H](C(=O)O)c1ccccc1 |  | inactive: 26.3%

3 compounds out of the list, sorted by SMILES length, smallest number first.
SMILES | Potency | activity change, negative = inhibition
O=S(=O)(Cc1ccccc1)NCC1CCCO1 (stereo not drawn) | inconclusive: 15.8 µM [inhibitor, single point] | 
COc1ccccc1N(Cc1cc2ccc(C)cc2[nH]c1=O)C(C)=O |  | inactive: 9.12%
COc1ccccc1NS(=O)(=O)c1ccc(Cl)c(NC(=S)NC(=O)C2CCCC2)c1 | inconclusive: 7.94 µM [inhibitor, single point] | 
